From publication PMC5120349, “Reconstitution of Targeted Deadenylation by the Ccr4-Not Complex and the YTH Domain Protein Mmi1”
No constants are given. Whether binding was seen depends on the method and setting. Some results given as binding are weak or reduced against the parent protein; the word gives no strength. For some assays here: Where a sequence is shown, tags or fusion partners need not be part of it.

Protein sequences, listed by entry. Tags and fused reporters are not part of them.
UniProt P87112: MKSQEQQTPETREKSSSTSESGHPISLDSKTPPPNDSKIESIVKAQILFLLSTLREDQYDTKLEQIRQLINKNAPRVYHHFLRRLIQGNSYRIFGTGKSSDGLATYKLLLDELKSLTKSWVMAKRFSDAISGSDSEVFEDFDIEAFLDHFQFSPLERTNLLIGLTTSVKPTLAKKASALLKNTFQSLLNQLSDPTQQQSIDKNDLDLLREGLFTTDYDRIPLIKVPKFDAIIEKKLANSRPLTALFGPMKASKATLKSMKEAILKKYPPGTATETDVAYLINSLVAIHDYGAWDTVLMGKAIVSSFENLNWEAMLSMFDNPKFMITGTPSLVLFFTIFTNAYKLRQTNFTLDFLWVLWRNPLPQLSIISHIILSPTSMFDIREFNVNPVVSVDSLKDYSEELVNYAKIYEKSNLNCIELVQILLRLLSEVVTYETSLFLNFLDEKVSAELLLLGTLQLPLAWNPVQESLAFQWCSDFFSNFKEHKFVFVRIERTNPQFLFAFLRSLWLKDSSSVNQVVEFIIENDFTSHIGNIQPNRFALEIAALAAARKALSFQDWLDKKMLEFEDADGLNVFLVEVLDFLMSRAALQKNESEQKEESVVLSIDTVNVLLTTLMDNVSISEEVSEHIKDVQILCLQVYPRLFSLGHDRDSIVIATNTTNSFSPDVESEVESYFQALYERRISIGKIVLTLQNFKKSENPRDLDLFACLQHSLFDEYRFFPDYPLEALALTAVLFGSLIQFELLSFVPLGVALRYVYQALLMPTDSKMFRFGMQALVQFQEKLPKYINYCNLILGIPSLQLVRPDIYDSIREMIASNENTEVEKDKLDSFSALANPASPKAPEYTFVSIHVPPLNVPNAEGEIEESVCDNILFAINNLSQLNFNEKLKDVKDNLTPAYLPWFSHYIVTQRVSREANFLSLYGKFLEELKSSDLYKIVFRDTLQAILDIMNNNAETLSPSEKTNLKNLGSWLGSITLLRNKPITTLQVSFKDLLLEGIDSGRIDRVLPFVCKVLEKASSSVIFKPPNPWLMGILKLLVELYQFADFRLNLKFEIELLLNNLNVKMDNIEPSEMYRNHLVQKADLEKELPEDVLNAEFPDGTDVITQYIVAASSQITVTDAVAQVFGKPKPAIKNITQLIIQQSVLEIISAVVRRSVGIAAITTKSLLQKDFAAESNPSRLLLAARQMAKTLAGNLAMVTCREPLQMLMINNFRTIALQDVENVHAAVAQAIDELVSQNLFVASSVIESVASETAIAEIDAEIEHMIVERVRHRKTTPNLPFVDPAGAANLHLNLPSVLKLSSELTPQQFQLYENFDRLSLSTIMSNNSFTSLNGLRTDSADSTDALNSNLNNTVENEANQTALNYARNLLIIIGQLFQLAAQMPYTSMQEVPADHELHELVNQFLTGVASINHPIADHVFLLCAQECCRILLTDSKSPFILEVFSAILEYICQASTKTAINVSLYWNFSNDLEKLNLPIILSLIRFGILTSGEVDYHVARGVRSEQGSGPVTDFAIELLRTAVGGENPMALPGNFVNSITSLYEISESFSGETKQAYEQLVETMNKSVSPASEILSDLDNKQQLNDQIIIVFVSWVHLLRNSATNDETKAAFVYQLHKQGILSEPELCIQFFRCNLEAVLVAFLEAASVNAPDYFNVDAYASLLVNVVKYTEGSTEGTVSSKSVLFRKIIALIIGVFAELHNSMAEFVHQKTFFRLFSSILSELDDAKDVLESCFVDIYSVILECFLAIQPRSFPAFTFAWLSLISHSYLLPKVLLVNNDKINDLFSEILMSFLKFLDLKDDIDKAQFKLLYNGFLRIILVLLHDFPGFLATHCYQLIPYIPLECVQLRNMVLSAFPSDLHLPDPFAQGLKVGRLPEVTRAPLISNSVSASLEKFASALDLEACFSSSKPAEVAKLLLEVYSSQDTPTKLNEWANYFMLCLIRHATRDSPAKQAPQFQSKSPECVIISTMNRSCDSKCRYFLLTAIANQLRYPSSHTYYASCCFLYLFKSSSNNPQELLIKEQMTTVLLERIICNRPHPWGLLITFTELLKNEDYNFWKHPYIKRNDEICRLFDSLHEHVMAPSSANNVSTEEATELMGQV

T1: Caf1 (StrepII-tagged, recombinant, S. pombe) (S. pombe) (UniProt O74856)
T1 sequence: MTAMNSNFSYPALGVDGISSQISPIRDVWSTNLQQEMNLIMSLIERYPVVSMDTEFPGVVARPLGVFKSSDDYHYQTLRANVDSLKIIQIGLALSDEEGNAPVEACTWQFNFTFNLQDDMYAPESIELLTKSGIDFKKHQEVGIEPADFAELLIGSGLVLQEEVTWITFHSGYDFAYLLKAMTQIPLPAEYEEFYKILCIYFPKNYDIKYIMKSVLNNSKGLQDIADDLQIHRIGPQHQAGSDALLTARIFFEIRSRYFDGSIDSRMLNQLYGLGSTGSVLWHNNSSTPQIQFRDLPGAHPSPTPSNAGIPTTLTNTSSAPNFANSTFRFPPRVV

T2: Caf1 of the recombinant Caf1-Ccr4 nuclease module (UniProt O74856)
T2 sequence: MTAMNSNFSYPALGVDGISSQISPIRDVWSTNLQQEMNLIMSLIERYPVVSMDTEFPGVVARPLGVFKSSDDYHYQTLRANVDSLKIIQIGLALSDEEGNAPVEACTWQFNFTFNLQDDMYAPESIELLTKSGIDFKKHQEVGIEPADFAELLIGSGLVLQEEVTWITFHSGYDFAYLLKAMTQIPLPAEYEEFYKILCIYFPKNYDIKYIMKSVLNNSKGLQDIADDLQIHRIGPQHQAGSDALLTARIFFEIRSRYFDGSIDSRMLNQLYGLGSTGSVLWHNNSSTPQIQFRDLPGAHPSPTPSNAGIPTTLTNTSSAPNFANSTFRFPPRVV


What was measured:
[1] = biological target: T1, Caf1 (StrepII-tagged, recombinant, S. pombe) (S. pombe); experiment: SEC-MALS; purified recombinant Ccr4-Not complex (co-expressed in Sf9); monodisperse; both purified
[2] = biological target: T1, Caf1 (StrepII-tagged, recombinant, S. pombe) (S. pombe); experiment: co-purification (Strep-Tactin affinity, anion exchange, size exclusion chromatography); subunits co-expressed from a single baculovirus in Sf9 cells; captured by the StrepII tag on Caf1; HEPES pH 8.0, 150 mM NaCl, 2 mM Mg(OAc)2; SDS-PAGE of the purified complex
[3] = biological target: T2, Caf1 of the recombinant Caf1-Ccr4 nuclease module; experiment: SEC; purified recombinant Caf1-Ccr4 heterodimeric complex; both purified

Row | Molecule | binding [1] | binding [2] | binding [3]
1 | Ccr4 (recombinant, S. pombe) (enzyme, UniProt O74874 1-690) MFNPRYTQGTIYPGAHPGLLTPDHQHAAILSVQNSPALENSNISEHWKQQIALATQSRSFSSPHQRAHNAAALARSGGPGFSMNYNARTGAFTGGPNAAGLSSLGGKYNTSSTTTTLTTSTTLNTSSGTTLNSTSKTTTSSVAVDDQKSKSDSKKERRDWTCLDLGGIGLRNVSTDLFKFSFLTELYINHNNLTRLPPEIGKLKNLVILDASGNSIKTIPPELGLLTELREVLLFDNMISVIPAELGTLFQLKILGIEGNPLQDVYKNQIMESGTAGLIAALRDGCPVGPPPPERGWEKLVSDDDDDVNDNVSTSVRDLTAADSNKPSTTSKNLKFTIMSYNVLCERYATSTLYGYTPSWALSWSYRKDLIMQELGGYNADIICLQEVDVENYDTFFAPQMSLKGYKGVHFPKSRVRTMNEVERRIVDGCATFFKTSKYVMHEKMVIEYNQAPSLRRQDIKLTSNMYNRVMTKDNISVITLLENKENGSRLIVANCHIHWDPQFRDVKVIQVAMLMDEIAQVATKFRNMPSKIPSDQLKDERPTYPEYLKIPILICGDFNSVQGSGVYDFLSSGSISQNHEDFMNNDYGEYTVNGRSHAFNLKSAYGESEALSFTNYTPGFKGAIDHIWYTGNSLEVTGLLKGVDKDYLSGVVGFPNAHFPSDHICLLAEFKVKQEKTPLPSSKFNNDKK | binds | binds | –
2 | Not2 (recombinant, S. pombe) (protein, UniProt P87240 1-306) MSLANRLSHLNITGGNDFKASIGPSVGRQNEATNPWSSTSHSLENSAATVVNELQTTKEQKTPEQSTTANPLFPGNDFSDFNNHKSKLLGVITGKSTPSSQAEKSDTTNSKTGSTEELTETPADENAKQYMLESLLPIIRMEDSEMSTLQLGCDLAALGFDLAPVEEDRLISTNLFSPWAELNTKKPVSQPMFKLPACYKNVNPPPAISKIFQFSDETLFYIFYTMPRDVMQEAAAQELTNRNWRFHKELRVWLTPVPGMKPLQRTPQFERGYYMFFDPIHWKRIKKDFLLMYAALEDRAQSAVHS | binds | binds | –
3 | Not3 (recombinant, S. pombe) (protein, UniProt O13870 1-640) MSARKLQVEIEKTFKKVTDGIAIFDEVYEKLSASNSVSQKEKLEGDLKTQIKKLQRLRDQIKTWASSNDIKDKKALLENRRLIEAKMEEFKAVEREMKIKAFSKEGLSIASKLDPKEKEKQDTIQWISNAVEELERQAELIEAEAESLKATFKRGKKDLSKLSHLSELESRIERHKWHQDKLELIMRRLENSQISPEAVNDIQEDIMYYVECSQSEDFAEDENLYDELNLDEASASYDAERSGRSSSSSHSPSPSASSSSSSENLLQDKAEAEEKVSADASVQDIAEKESLDADKELATNDQEDDEEENQAETQKDGAISNNENMQSEVQTTNPSASTSAVTNITKPTLIQNPSTPLSVSNSKVASPETPNATHTAPKVEMRYASAAAAAAAALAKESPSHHYIMQQVRPETPNSPRLNSTVIQSKWDSLGHTASPKMQTQPVRSVSQSSATTETNVKPTKEENADVPVSSPDYLKDLVNALNTSKEQHKGAIDKEKLTEALNISCVYVPDATDAAKPQYYIPKDPYPVPHYYPQQPLPLFDSSEMTELVDPDTLFYMFYYRPGTYQQYIAGQELKKQSWRFHKKYTTWFQRHEEPKMITDEFESGSYRYFDFEGDWVQRKKADFRFTYQYLEDDDDWTR | binds | binds | –

The remaining lines, values ahead:

Row | binding [1] | binding [2] | binding [3] | Molecule
4 | binds | binds | – | Not1 (recombinant, S. pombe) (from UniProt P87112 1-2100)
5 | binds | binds | – | Rcd1 (recombinant, S. pombe) (protein, UniProt Q92368 1-283) MENLESPNYEPALVYEWIIQLVSGTSREQALVELSRKREQYEDLALILWHSYGVMTALLQEIISVYPLLNPPTLTGPTSNRVCNALALLQCIASHPETRIHFLNAHITLFLYPFLNTLSKSKPFEYLRLTSLGVIGALVKNDSPEVINFLLSTEIIPLCLRIMENGSELSKTVAIFIVQKFLCDDVGLQYICQTYERFYAVASVLNNMVMQLVDSFAFRLLKHVIRCYLRLSDNPRAREALRHCLPEPLRDATFAQVLKDDHNTKKCLAQLLINLSDVAVVNQ
6 | – | – | binds | Ccr4 of the recombinant Caf1-Ccr4 nuclease module (enzyme, UniProt O74874 1-690) MFNPRYTQGTIYPGAHPGLLTPDHQHAAILSVQNSPALENSNISEHWKQQIALATQSRSFSSPHQRAHNAAALARSGGPGFSMNYNARTGAFTGGPNAAGLSSLGGKYNTSSTTTTLTTSTTLNTSSGTTLNSTSKTTTSSVAVDDQKSKSDSKKERRDWTCLDLGGIGLRNVSTDLFKFSFLTELYINHNNLTRLPPEIGKLKNLVILDASGNSIKTIPPELGLLTELREVLLFDNMISVIPAELGTLFQLKILGIEGNPLQDVYKNQIMESGTAGLIAALRDGCPVGPPPPERGWEKLVSDDDDDVNDNVSTSVRDLTAADSNKPSTTSKNLKFTIMSYNVLCERYATSTLYGYTPSWALSWSYRKDLIMQELGGYNADIICLQEVDVENYDTFFAPQMSLKGYKGVHFPKSRVRTMNEVERRIVDGCATFFKTSKYVMHEKMVIEYNQAPSLRRQDIKLTSNMYNRVMTKDNISVITLLENKENGSRLIVANCHIHWDPQFRDVKVIQVAMLMDEIAQVATKFRNMPSKIPSDQLKDERPTYPEYLKIPILICGDFNSVQGSGVYDFLSSGSISQNHEDFMNNDYGEYTVNGRSHAFNLKSAYGESEALSFTNYTPGFKGAIDHIWYTGNSLEVTGLLKGVDKDYLSGVVGFPNAHFPSDHICLLAEFKVKQEKTPLPSSKFNNDKK
